Measured values published in article PMC7707563.
No constants are given. Whether binding was seen depends on the method and setting. For some assays here: Binding seen in cells or lysates may run through a third protein. Some results given as binding are weak or reduced against the parent protein; the word gives no strength. For some assays here: Sequences can lack the tags named with a protein.

Sequences of proteins named here, by UniProt entry; tags and fusion partners are left off. Residues count along the entry.
UniProt Q9NPF7, residues 20-189: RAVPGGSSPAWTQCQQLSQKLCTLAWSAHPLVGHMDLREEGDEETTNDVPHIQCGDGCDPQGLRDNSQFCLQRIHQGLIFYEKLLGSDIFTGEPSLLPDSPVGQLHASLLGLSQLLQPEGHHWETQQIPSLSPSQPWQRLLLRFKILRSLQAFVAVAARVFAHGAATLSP
UniProt P29460, residues 23-328: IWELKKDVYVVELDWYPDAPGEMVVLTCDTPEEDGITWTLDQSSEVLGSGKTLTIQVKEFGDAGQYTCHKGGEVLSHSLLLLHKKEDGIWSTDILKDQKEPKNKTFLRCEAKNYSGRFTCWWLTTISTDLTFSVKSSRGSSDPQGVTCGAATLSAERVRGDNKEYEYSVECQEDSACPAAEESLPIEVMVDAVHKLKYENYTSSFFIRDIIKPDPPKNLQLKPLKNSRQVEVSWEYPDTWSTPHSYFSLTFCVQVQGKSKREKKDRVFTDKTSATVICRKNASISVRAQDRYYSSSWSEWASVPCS

Assays:
[1] = biological target: human IL-23 p19 (aa20-189) (human) (UniProt Q9NPF7); test: ELISA; commercial human IL-23 MAX ELISA (Biolegend) on supernatants of p19 and/or EBI3-His transfected HEK293FT cells
[2] = biological target: T1, C-terminally 10 x His-tagged EBI3 (human) (UniProt Q14213); test: co-IP; concentrated, pre-cleared supernatants of p19 and EBI3-His co-transfected HEK293FT cells; anti-His antibody and Protein G sepharose, PBS-0.05% Tween 20, 4°C; p19 Western blot
T1 sequence: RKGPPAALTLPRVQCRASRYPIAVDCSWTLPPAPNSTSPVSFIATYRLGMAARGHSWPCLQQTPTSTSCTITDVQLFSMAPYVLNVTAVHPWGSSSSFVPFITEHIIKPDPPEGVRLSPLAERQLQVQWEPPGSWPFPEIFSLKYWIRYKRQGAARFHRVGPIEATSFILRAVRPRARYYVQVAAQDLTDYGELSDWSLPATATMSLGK

binding [1]	binding [2]	Substance
binds		endogenous p40 (from UniProt P29460 23-328)
	binds	human IL-23 p19 (aa20-189) (from UniProt Q9NPF7 20-189)
